We go through one substance from article PMC10861631.

By UniProt entry, the sequences of proteins in these tests, tags left out. Where a name states a change or a piece, a line headed by the entry shows the natural chain unless it says otherwise.
UniProt Q9JLU4: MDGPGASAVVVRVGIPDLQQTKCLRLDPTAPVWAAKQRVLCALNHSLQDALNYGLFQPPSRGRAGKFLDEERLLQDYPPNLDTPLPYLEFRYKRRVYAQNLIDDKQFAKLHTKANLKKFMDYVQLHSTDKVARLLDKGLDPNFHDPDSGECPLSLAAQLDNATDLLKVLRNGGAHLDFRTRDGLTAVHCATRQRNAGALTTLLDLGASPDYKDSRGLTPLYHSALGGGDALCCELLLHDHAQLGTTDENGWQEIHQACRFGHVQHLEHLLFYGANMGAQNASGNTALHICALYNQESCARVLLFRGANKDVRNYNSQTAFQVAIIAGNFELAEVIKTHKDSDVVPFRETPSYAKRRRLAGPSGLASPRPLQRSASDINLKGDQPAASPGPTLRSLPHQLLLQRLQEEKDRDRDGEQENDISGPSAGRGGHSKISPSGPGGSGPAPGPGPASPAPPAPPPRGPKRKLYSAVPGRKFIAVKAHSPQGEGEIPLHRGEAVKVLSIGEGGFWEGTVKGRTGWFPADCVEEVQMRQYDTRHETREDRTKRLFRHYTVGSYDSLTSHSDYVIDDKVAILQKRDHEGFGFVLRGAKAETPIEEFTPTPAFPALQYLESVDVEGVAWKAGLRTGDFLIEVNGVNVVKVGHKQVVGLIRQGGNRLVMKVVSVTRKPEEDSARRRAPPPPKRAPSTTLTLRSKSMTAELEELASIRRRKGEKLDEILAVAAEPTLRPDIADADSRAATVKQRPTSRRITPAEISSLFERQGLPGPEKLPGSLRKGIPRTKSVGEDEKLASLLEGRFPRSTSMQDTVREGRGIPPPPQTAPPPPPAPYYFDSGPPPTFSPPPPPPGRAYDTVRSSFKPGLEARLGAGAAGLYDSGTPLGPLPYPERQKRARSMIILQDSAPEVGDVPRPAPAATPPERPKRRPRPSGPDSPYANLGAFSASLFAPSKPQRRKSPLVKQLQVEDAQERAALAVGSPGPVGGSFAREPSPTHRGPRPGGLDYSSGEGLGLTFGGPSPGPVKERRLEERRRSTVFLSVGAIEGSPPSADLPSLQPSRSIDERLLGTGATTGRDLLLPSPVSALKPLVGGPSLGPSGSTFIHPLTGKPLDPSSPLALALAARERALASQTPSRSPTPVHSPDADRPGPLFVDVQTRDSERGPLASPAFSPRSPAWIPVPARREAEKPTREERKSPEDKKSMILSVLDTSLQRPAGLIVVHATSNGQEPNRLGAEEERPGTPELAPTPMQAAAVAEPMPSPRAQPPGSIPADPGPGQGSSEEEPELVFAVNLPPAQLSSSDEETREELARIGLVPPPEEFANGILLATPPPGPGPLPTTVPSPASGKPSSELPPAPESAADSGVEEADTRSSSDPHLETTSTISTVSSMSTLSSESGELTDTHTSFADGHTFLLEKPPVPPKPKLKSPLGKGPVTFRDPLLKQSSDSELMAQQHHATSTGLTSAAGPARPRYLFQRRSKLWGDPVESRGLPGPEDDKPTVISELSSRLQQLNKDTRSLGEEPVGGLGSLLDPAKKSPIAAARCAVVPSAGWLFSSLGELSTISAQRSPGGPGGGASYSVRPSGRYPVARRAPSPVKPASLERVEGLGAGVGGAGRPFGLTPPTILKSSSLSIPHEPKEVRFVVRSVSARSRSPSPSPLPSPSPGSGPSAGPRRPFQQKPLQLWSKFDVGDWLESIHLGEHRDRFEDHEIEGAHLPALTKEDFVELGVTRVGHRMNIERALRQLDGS
UniProt P62834: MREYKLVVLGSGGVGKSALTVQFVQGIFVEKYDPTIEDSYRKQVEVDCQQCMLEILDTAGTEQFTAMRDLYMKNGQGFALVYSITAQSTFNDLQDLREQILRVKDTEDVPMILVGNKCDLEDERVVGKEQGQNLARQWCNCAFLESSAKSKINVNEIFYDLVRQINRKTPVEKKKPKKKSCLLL

These are yes or no findings as the source states them, for the method shown. Binding seen in cells or lysates may run through a third protein. Binding can be weak; no strength is given.

In the experiment the target is mRFP-tagged Shank3 N-terminus (SPN + Ank domains) (rat) (UniProt Q9JLU4). Kind of experiment: co-IP; mRFP-tagged Shank N-termini coexpressed in 293T cells with T7-αCaMKII and/or HA-tagged G12V G-proteins; precipitated with RFP-trap beads, 2 h at 4 °C; IP buffer 50 mM Tris-HCl pH 8, 120 mM NaCl, 0.5% NP40, 1 mM EDTA; Western blot. A general note: Immunoblotting shows a protein as a band on a membrane.

In the case of “HA-tagged Rap1a G12V (constitutively active) (from UniProt P62834 1-184)”, the binding result was “binds”.
